Experimental data reported in publication PMC5363987.
These are yes or no findings as the source states them, for the method shown. Binding seen in cells or lysates may run through a third protein. Some results given as binding are weak or reduced against the parent protein; the word gives no strength. Sequences can lack the tags named with a protein.

Sequences of proteins named here, by UniProt entry; tags and fusion partners are left off.
UniProt P52332: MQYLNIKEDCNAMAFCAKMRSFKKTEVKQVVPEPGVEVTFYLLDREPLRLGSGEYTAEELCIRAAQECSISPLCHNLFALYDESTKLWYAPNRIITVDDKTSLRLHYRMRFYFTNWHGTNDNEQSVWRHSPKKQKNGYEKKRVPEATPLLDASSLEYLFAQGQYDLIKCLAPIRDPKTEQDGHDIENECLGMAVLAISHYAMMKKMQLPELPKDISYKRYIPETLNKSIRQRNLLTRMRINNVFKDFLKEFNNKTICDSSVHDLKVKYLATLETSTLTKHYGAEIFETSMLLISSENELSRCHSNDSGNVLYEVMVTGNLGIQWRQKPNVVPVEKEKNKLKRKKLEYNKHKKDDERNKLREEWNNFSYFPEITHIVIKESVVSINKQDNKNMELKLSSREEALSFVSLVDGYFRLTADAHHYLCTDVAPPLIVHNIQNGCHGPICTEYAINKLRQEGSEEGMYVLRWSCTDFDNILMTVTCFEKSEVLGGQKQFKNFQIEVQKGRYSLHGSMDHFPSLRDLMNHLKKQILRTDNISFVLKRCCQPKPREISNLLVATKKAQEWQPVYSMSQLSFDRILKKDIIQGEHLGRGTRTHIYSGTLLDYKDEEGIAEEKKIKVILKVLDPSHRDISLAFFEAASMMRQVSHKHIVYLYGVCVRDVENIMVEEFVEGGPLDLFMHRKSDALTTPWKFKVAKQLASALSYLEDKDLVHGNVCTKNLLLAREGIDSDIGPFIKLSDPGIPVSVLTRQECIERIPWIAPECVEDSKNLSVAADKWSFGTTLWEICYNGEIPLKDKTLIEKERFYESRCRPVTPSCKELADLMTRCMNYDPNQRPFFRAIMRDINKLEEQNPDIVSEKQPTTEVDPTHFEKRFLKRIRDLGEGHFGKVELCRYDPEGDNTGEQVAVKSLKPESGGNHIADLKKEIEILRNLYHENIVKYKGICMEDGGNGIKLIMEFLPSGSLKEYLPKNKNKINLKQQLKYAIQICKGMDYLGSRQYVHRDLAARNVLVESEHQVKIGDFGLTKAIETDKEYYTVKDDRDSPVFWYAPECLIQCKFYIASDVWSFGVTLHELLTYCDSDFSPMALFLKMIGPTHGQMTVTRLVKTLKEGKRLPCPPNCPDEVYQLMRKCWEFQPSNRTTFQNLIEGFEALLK
UniProt Q62120: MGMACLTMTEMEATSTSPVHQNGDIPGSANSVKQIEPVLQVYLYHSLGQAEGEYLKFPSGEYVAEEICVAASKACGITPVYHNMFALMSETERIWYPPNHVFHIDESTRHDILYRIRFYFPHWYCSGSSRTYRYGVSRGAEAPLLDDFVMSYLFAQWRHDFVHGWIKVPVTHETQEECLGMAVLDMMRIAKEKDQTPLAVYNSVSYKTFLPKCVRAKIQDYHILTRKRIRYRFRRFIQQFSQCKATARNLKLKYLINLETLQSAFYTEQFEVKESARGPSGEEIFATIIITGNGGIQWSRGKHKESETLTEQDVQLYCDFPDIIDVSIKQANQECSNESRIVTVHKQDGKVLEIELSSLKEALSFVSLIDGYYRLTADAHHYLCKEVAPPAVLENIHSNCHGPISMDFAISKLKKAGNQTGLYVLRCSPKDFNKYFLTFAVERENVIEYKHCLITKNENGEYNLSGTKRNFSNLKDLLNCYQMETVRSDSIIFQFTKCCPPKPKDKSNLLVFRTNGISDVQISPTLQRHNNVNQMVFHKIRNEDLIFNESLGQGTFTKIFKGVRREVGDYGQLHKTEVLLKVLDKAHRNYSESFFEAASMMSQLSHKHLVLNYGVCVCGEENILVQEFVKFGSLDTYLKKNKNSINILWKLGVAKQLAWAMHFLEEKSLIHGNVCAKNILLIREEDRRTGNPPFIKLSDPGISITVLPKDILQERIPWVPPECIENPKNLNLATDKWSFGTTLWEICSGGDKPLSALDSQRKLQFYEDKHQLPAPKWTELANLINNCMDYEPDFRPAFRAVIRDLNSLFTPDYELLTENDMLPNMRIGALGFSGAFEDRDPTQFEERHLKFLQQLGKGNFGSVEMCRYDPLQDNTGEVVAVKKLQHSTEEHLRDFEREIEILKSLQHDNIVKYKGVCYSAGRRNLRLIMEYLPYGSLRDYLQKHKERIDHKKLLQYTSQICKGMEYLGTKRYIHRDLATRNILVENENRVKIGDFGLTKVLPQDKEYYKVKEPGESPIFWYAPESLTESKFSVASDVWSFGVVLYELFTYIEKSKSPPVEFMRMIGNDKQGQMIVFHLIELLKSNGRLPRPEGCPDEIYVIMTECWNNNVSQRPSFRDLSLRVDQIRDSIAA

Legend:
[1] = biological target: T1, CUB and zona pellucida-like domain-containing protein 1 (CUZD1), endogenous in HC11 cells (mouse (endogenous in HC11)) (UniProt P70412); assay: co-IP; HC11 cells, 48 h serum-free then 10% FBS for 24 h; lysate immunoprecipitated with CUZD1 antibody or IgG control; Western blot for CUZD1, JAK1, JAK2, pSTAT5
T1 sequence: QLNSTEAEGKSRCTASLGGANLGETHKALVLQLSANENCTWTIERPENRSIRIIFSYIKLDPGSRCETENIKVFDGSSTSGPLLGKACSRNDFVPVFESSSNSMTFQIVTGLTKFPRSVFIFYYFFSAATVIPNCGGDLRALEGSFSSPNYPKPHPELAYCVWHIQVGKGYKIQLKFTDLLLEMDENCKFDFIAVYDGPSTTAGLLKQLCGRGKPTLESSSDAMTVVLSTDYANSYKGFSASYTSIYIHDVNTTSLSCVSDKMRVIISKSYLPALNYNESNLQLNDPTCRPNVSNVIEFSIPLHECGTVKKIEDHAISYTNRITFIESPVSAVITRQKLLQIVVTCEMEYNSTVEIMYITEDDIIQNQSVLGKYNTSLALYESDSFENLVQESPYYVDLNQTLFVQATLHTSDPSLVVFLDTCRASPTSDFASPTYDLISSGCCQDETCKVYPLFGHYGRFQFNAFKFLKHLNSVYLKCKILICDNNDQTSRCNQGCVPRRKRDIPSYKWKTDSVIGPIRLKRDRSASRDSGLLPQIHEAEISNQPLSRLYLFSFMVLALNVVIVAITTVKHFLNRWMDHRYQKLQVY

[2] = biological target: T2, 3xFLAG-CUZD1 (recombinant FLAG epitope-tagged CUZD1) (UniProt P70412); assay: co-IP; HC11-3xFLAG-Cuzd1 cells cultured with FBS, EGF and PRL for 6 h; precleared lysate, anti-FLAG M2 or mouse IgG control resin, elution with 3xFLAG peptide; Western blot for FLAG, JAK1, JAK2, pSTAT5
T2 sequence: T1 sequence

binding [1] | binding [2] | Substance
binds | binds | Janus tyrosine kinase 1 (JAK1) (from UniProt P52332 1-1153)
binds | binds | Janus tyrosine kinase 2 (JAK2) (from UniProt Q62120 1-1132)
